Results deposited as PubChem BioAssay AID1259308 (NCATS, 2017).
Purpose: 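Candidate targets for better recombinant protein yield in mammalian cells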 (primary screen). System: human HEK293 embryonic kidney cells stably expressing firefly luciferase (HEK-CMV-Luc2-Hygro). Reagents: single siRNA against human genes, 0.8 pmol siRNA per well. Duration: 72 h. Detection: 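Luciferase light (ONE-Glo) measured on one replicate plate set and viability (CellTiter-Glo) on the other, scaled to a negative control siRNA, with robust z-scores and luciferase per cell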. Reading the numbers: total luciferase, z-score and total luciferase, % of control: higher = more reporter protein produced. Call rule: 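Active when the median/MAD z-score for overall luciferase is greater than 3; a gene was taken forward for validation with new siRNAs if at least two of its three siRNAs passed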. Meaning of the calls: active = raised luciferase; inactive = no rise.
Shown is one part, drawn at random, of about 59,000 deposited reagents. Over the whole deposit, about 1,510 (2.6%) got an active call. 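Calls use total luciferase alone and ignore viability, so some active siRNAs may act by altering cell number.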 The numbers tell different reagents against one gene apart. Not all columns of the deposit are shown.

{"target":"H3P44","siRNA no.":1,"total luciferase, z-score":1.34,"total luciferase, % of control":108,"Call":"inactive"}
{"target":"H3P44","siRNA no.":2,"total luciferase, z-score":0.481,"total luciferase, % of control":91.5,"Call":"inactive"}
{"target":"H3P44","siRNA no.":3,"total luciferase, z-score":0.288,"total luciferase, % of control":87.6,"Call":"inactive"}
{"target":"SRR","siRNA no.":1,"total luciferase, z-score":0.811,"total luciferase, % of control":98,"Call":"inactive"}
{"target":"SRR","siRNA no.":2,"total luciferase, z-score":-0.76,"total luciferase, % of control":66.8,"Call":"inactive"}
{"target":"SRR","siRNA no.":3,"total luciferase, z-score":2.68,"total luciferase, % of control":135,"Call":"inactive"}
{"target":"CRTC1","siRNA no.":1,"total luciferase, z-score":-0.549,"total luciferase, % of control":71,"Call":"inactive"}
{"target":"CRTC1","siRNA no.":2,"total luciferase, z-score":0.194,"total luciferase, % of control":85.7,"Call":"inactive"}
{"target":"CRTC1","siRNA no.":3,"total luciferase, z-score":-0.339,"total luciferase, % of control":75.2,"Call":"inactive"}
{"target":"POLR1HASP","siRNA no.":1,"total luciferase, z-score":0.156,"total luciferase, % of control":85,"Call":"inactive"}
{"target":"POLR1HASP","siRNA no.":2,"total luciferase, z-score":-1.29,"total luciferase, % of control":56.3,"Call":"inactive"}
{"target":"POLR1HASP","siRNA no.":3,"total luciferase, z-score":0.434,"total luciferase, % of control":90.5,"Call":"inactive"}
{"target":"NDUFV3","siRNA no.":1,"total luciferase, z-score":-0.712,"total luciferase, % of control":67.7,"Call":"inactive"}
{"target":"NDUFV3","siRNA no.":2,"total luciferase, z-score":-0.543,"total luciferase, % of control":71.1,"Call":"inactive"}
{"target":"NDUFV3","siRNA no.":3,"total luciferase, z-score":-0.468,"total luciferase, % of control":72.6,"Call":"inactive"}

Records listed so far whose gene name begins with H or h (3):
{"target":"H3P44","siRNA no.":1,"total luciferase, z-score":1.34,"total luciferase, % of control":108,"Call":"inactive"}
{"target":"H3P44","siRNA no.":2,"total luciferase, z-score":0.481,"total luciferase, % of control":91.5,"Call":"inactive"}
{"target":"H3P44","siRNA no.":3,"total luciferase, z-score":0.288,"total luciferase, % of control":87.6,"Call":"inactive"}

The results go on:
{"target":"CBY2","siRNA no.":1,"total luciferase, z-score":-1.12,"total luciferase, % of control":59.6,"Call":"inactive"}
{"target":"CBY2","siRNA no.":2,"total luciferase, z-score":1.08,"total luciferase, % of control":103,"Call":"inactive"}
{"target":"CBY2","siRNA no.":3,"total luciferase, z-score":-1.76,"total luciferase, % of control":46.9,"Call":"inactive"}
{"target":"OR4A5","siRNA no.":1,"total luciferase, z-score":0.149,"total luciferase, % of control":84.9,"Call":"inactive"}
{"target":"OR4A5","siRNA no.":2,"total luciferase, z-score":3.23,"total luciferase, % of control":146,"Call":"active"}
{"target":"OR4A5","siRNA no.":3,"total luciferase, z-score":-0.372,"total luciferase, % of control":74.5,"Call":"inactive"}
{"target":"FHOD3","siRNA no.":1,"total luciferase, z-score":-0.597,"total luciferase, % of control":70,"Call":"inactive"}
{"target":"FHOD3","siRNA no.":2,"total luciferase, z-score":-0.499,"total luciferase, % of control":72,"Call":"inactive"}
{"target":"FHOD3","siRNA no.":3,"total luciferase, z-score":1.06,"total luciferase, % of control":103,"Call":"inactive"}
{"target":"ZNF768","siRNA no.":1,"total luciferase, z-score":-0.00418,"total luciferase, % of control":81.8,"Call":"inactive"}
{"target":"ZNF768","siRNA no.":2,"total luciferase, z-score":-1.56,"total luciferase, % of control":50.9,"Call":"inactive"}
{"target":"ZNF768","siRNA no.":3,"total luciferase, z-score":-0.702,"total luciferase, % of control":67.9,"Call":"inactive"}
{"target":"NTSR1","siRNA no.":1,"total luciferase, z-score":0.297,"total luciferase, % of control":87.8,"Call":"inactive"}
{"target":"NTSR1","siRNA no.":2,"total luciferase, z-score":-0.846,"total luciferase, % of control":65.1,"Call":"inactive"}
{"target":"NTSR1","siRNA no.":3,"total luciferase, z-score":-0.411,"total luciferase, % of control":73.7,"Call":"inactive"}
{"target":"AHR","siRNA no.":1,"total luciferase, z-score":-0.218,"total luciferase, % of control":77.5,"Call":"inactive"}
{"target":"AHR","siRNA no.":2,"total luciferase, z-score":3.33,"total luciferase, % of control":148,"Call":"active"}
{"target":"AHR","siRNA no.":3,"total luciferase, z-score":0.275,"total luciferase, % of control":87.4,"Call":"inactive"}
